Source: PubChem BioAssay AID330 (DTP/NCI, 2004)
The list is a part of this screen's results and no random one: it covers a few groups of compounds. Not every dose and run of a compound is shown. T/C: endpoint of the treated group in % of that of the vehicle group. Where survival is the endpoint, the PubChem record calls one and a half times the control and up active, and a quarter to a half above the control has no call in these data; cut-offs in other NCI protocols can differ. Some T/C values are marked as having no survivor count here; that says nothing about deaths at the dose. Schedules are NCI's codes, read here as Q, the interval in days (D) or hours (H), X, the number of doses. Some entries were tested several times; the values are given in rising order.

Test system: P388 leukemia ip, CD2F1 mice, survival T/C
Test: NCI In Vivo Anticancer Drug Screen. Data for tumor model P388 Leukemia (intraperitoneal) in CD2F1 (CDF1) mice
Details: T/C endpoint: median survival time, higher T/C = longer survival
[1] = dose: 1.5 mg/kg/injection, schedule: Q01DX009 (ip), vehicle: saline
[2] = dose: 3.0 mg/kg/injection, schedule: Q01DX009 (ip), vehicle: saline

With `ClCCN1CCCC1CCl` (configuration not stated) the T/C (dose: 0.75 mg/kg/injection, schedule: Q01DX009 (ip), vehicle: saline) was 143 % of control [survivor count not shown], the T/C [1] was 153 % of control [survivor count not shown] and the T/C [2] was 170 % of control [survivor count not shown]. For the same compound, the T/C (dose: 4.5 mg/kg/injection, schedule: Q01DX009 (ip), vehicle: saline) was 207 % of control [survivor count not shown], the T/C (dose: 375.0 micrograms/kg/injection, schedule: Q01DX009 (ip), vehicle: saline) was 123 % of control [survivor count not shown] and the T/C (dose: 750.0 micrograms/kg/injection, schedule: Q01DX009 (ip), vehicle: saline) was 128 % of control [survivor count not shown]. For the same compound, the T/C (dose: 1500.0 micrograms/kg/injection, schedule: Q01DX009 (ip), vehicle: saline) was 148 % of control [survivor count not shown], the T/C (dose: 3000.0 micrograms/kg/injection, schedule: Q01DX009 (ip), vehicle: saline) was 176 % of control [survivor count not shown] and the T/C (dose: 6000.0 micrograms/kg/injection, schedule: Q01DX009 (ip), vehicle: saline) was 92 % of control [survivor count not shown].

For `C=C(C)C(O)(C(=O)OC1CN2CCC1CC2)C1CCCCC1` (configuration not stated), the T/C (dose: 100.0 mg/kg/injection, schedule: Q01DX001 (ip), vehicle: saline) was 95 % of control [survivor count not shown], the T/C (dose: 200.0 mg/kg/injection, schedule: Q01DX001 (ip), vehicle: saline) was 100 % of control [survivor count not shown] and the T/C (dose: 400.0 mg/kg/injection, schedule: Q01DX001 (ip), vehicle: saline) was 92 % of control [survivor count not shown].

`CC(C)(O)C#CCN(CCCl)CCCl` was tested, and the T/C (dose: 0.75 mg/kg/injection, schedule: Q01DX009 (ip), vehicle: saline sonified) was 181 % of control [survivor count not shown], the T/C (dose: 0.75 mg/kg/injection, schedule: Q04DX003 (ip), vehicle: saline) was 117 % of control [survivor count not shown] and the T/C (dose: 1.5 mg/kg/injection, schedule: Q01DX009 (ip), vehicle: saline sonified) was 118 % of control [survivor count not shown]. The T/C (dose: 1.5 mg/kg/injection, schedule: Q04DX003 (ip), vehicle: saline) was 121 % of control [survivor count not shown], the T/C (dose: 2.0 mg/kg/injection, schedule: Q04DX003 (ip), vehicle: saline with Tween-80) was 145 % of control [survivor count not shown] and the T/C (dose: 3.0 mg/kg/injection, schedule: Q04DX003 (ip), vehicle: saline with Tween-80) was 140 % of control [survivor count not shown]. For the same compound, the T/C (dose: 3.0 mg/kg/injection, schedule: Q04DX003 (ip), vehicle: saline) was 156 % of control [survivor count not shown] and the T/C (dose: 4.5 mg/kg/injection, schedule: Q04DX003 (ip), vehicle: saline with Tween-80) was 168 % of control [survivor count not shown].

In the case of `ClCCN(CCCl)C1CCCc2ccccc21` (configuration not stated), the T/C (dose: 3.13 mg/kg/injection, schedule: Q01DX009 (ip), vehicle: Klucel (hydroxypropylcellulose) (HPC)) is reported as 152 % of control [survivor count not shown], the T/C (dose: 6.25 mg/kg/injection, schedule: Q01DX009 (ip), vehicle: Klucel (hydroxypropylcellulose) (HPC)) is reported as 125 [survivor count not shown] and 178 % of control [survivor count not shown] and the T/C (dose: 12.5 mg/kg/injection, schedule: Q01DX009 (ip), vehicle: Klucel (hydroxypropylcellulose) (HPC)) is reported as 132 [survivor count not shown] and 160 % of control [survivor count not shown]. The T/C (dose: 25.0 mg/kg/injection, schedule: Q01DX009 (ip), vehicle: Klucel (hydroxypropylcellulose) (HPC)) was 133 % of control [survivor count not shown].

`ClCCCC(Cl)CNCCCl` (configuration not stated) was tested, and the T/C (dose: 1.0 mg/kg/injection, schedule: Q01DX009 (ip), vehicle: saline) was 95 % of control [survivor count not shown], the T/C (dose: 2.0 mg/kg/injection, schedule: Q01DX009 (ip), vehicle: saline) was 100 % of control [survivor count not shown] and the T/C (dose: 3.3 mg/kg/injection, schedule: Q01DX009 (ip), vehicle: saline) was 100 % of control [survivor count not shown]. The T/C (dose: 4.0 mg/kg/injection, schedule: Q01DX009 (ip), vehicle: saline) was 100 % of control [survivor count not shown], the T/C (dose: 5.0 mg/kg/injection, schedule: Q01DX009 (ip), vehicle: saline) was 109 % of control [survivor count not shown] and the T/C (dose: 7.5 mg/kg/injection, schedule: Q01DX009 (ip), vehicle: saline) was 86 % of control [survivor count not shown]. The T/C (dose: 8.0 mg/kg/injection, schedule: Q01DX009 (ip), vehicle: saline) was 115 % of control [survivor count not shown], the T/C (dose: 12.5 mg/kg/injection, schedule: Q01DX009 (ip), vehicle: saline sonified) was 136 % of control [survivor count not shown] and the T/C (dose: 16.5 mg/kg/injection, schedule: Q04DX003 (ip), vehicle: saline) was 117 % of control [survivor count not shown]. For the same compound, the T/C (dose: 25.0 mg/kg/injection, schedule: Q01DX009 (ip), vehicle: saline sonified) was 181 % of control [survivor count not shown], the T/C (dose: 25.0 mg/kg/injection, schedule: Q04DX003 (ip), vehicle: saline sonified) was 131 % of control [survivor count not shown] and the T/C (dose: 25.0 mg/kg/injection, schedule: Q04DX003 (ip), vehicle: saline) was 139 % of control [survivor count not shown]. For the same compound, the T/C (dose: 37.5 mg/kg/injection, schedule: Q04DX003 (ip), vehicle: saline) was 173 % of control [survivor count not shown] and the T/C (dose: 50.0 mg/kg/injection, schedule: Q04DX003 (ip), vehicle: saline sonified) was 118 % of control [survivor count not shown].

With `Cc1ccc(C)c(CN(CCCl)CCCl)c1` the T/C (dose: 0.4 mg/kg/injection, schedule: Q01DX009 (ip), vehicle: saline) was 107 % of control [survivor count not shown], the T/C (dose: 0.8 mg/kg/injection, schedule: Q01DX009 (ip), vehicle: saline) was 115 % of control [survivor count not shown] and the T/C [1] was 119 % of control [survivor count not shown]. For the same compound, the T/C [2] was 132 % of control [survivor count not shown], the T/C (dose: 3.13 mg/kg/injection, schedule: Q01DX009 (ip), vehicle: saline) was 142 % of control [survivor count not shown] and the T/C (dose: 6.25 mg/kg/injection, schedule: Q01DX009 (ip), vehicle: saline) was 145 [survivor count not shown] and 151 % of control [survivor count not shown]. The T/C (dose: 12.5 mg/kg/injection, schedule: Q01DX009 (ip), vehicle: saline) was 166 [survivor count not shown] and 172 % of control [survivor count not shown] and the T/C (dose: 25.0 mg/kg/injection, schedule: Q01DX009 (ip), vehicle: saline) was 181 [survivor count not shown] and 196 % of control [survivor count not shown].

With `CC(C)C#CC(O)(C(=O)OC1C2CCN(CC2)C1C)C1CCCC1` (configuration not stated) the T/C (dose: 100.0 mg/kg/injection, schedule: Q01DX001 (ip), vehicle: saline with Tween-80) was 98 % of control [survivor count not shown], the T/C (dose: 200.0 mg/kg/injection, schedule: Q01DX001 (ip), vehicle: saline with Tween-80) was 101 % of control [survivor count not shown] and the T/C (dose: 400.0 mg/kg/injection, schedule: Q01DX001 (ip), vehicle: saline with Tween-80) was 94 % of control [survivor count not shown].

`CN1CCC(OC(=O)C(O)(c2ccccc2)C2C=CCCC2)CC1` (configuration not stated) was tested, and the T/C (dose: 100.0 mg/kg/injection, schedule: Q04DX003 (ip), vehicle: saline) was 109 % of control [survivor count not shown], the T/C (dose: 200.0 mg/kg/injection, schedule: Q04DX003 (ip), vehicle: saline) was 104 % of control [survivor count not shown] and the T/C (dose: 400.0 mg/kg/injection, schedule: Q04DX003 (ip), vehicle: saline) was 101 % of control [survivor count not shown].
